# Laboratory results from PubChem BioAssay AID493014 (National Center for Advancing Translational Sciences (NCATS), 2011).
# Out of some 340,000 compounds screened, about 170 (0.05%) were called active. The inconclusive results got no clear call from the source; some entries with a clear call stand among them for comparison. The call rests on the fitted dose curve; in most records, active means well fitted inhibition curve with a large enough effect in the signal ratio, with a control signal flat (not every such curve was filed as active); inconclusive means small, poorly fitted or top-dose-only effect, or effect the other way, or a change in a side signal; inactive means flat fitted curve, though single readings scatter; the % refers to the signal ratio. Potencies of inconclusive entries are doubtful fits and often do not repeat.
# Assay: qHTS Assay to Find Inhibitors of Chronic Active B-Cell Receptor Signaling;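 on activity change, negative = inhibition: plate controls were basal doxycycline-induced cells for no effect and cells given 10 µM MG132 for full effect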
# Conditions: ABC-DLBCL IkBa-CBG/CBR reporter, luminescence ratio (green luciferase fused to IkBa over red control in TMD8 lymphoma cells), 4 h; activity change, negative = inhibition: at 46.1 µM (top of the series) unless noted
# Method in brief: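 Compounds up to 46 uM were incubated four hours with TMD8 cells whose green CBG68 luciferase is fused to IkappaBalpha; red CBR luminescence normalised the signal, and concentration-effect curves were fitted to fusion, red and ratio data.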
# Potency means the concentration at half of the fitted maximal effect.
Structure (SMILES),"activity change, negative = inhibition",Potency
O=C(CSc1nnc(NC2CCCCC2)s1)Nc1ccc2c(c1)C(=O)c1ccccc1C2=O,inactive: 1.78%,
COc1ccc(C(CNC(=O)c2ccccc2C)N2CCCC2)cc1 (configuration not stated),,"inconclusive: 1.46 µM [falling, full curve]"
COc1ccc(C(=O)OCC(=O)NCC2CCCO2)cc1[N+](=O)[O-] (configuration not stated),inconclusive: 6.28%,
C/C=C\C=C/C(=O)Nc1cccc(C2=NOC3(C2)C[C@H](C(N)=O)N(C(=O)CC)C3)c1 (some centres not stated),,"inconclusive: 11.2 µM [falling, partial curve, poor fit]"
COc1cc(/C=C/C(=O)N[C@@H](Cc2c[nH]c3ccccc23)C(=O)O)ccc1O,inconclusive: -1.24%,
CCn1c(CSc2nc(C)cc(C)n2)nnc1SCC(=O)Nc1ccccc1,inconclusive: 5.25%,
O=c1c(Cl)c2oc3ccccc3nc-2c2ccccc12,inactive: 20.3%,
S=C(Nc1cc(Cl)ccc1Oc1ccccc1)N1CCN(c2ccccn2)CC1,inactive: -1.14%,
COc1ccc(C2c3[nH]c4ccccc4c3CCN2C(=O)c2cc3ncccn3n2)c(F)c1 (configuration not stated),inconclusive: -28.9%,
COc1ccc(NC(=O)c2ccc3[nH]c(C)c(C)c3c2)cc1,,"inconclusive: 12.6 µM [falling, partial curve, poor fit]"
O=C(O)c1ccccc1SC1CC(=O)N(c2ccccc2)C1=O (configuration not stated),,"inconclusive: 9.2 µM [falling, partial curve]"
O=C(Nc1ccccc1C(=O)O)c1ccc(Br)o1,,"inconclusive: 3.55 µM [falling, partial curve]"
O=C(O)C1=C[C@H](c2coc3ccccc3c2=O)C[C@H](OCc2ccc(CO)cc2)O1,,"inconclusive: 35.5 µM [falling, single point]"
COc1ccccc1OCC(=O)Nc1cccc(-c2nnc(-c3ccco3)o2)c1,inactive: 5.26%,
CC1(C)CC[C@]2(C(=O)O)[C@H](O)C[C@]3(C)C(=CCC4[C@@]5(C)C[C@H](O)[C@H](O)[C@@](C)(CO)C5CC[C@]43C)[C@@H]2C1 (some centres not stated),,"inconclusive: 9.2 µM [rising, partial curve]"
Cc1ccc(CC(=O)Nc2ccc(S(=O)(=O)N3CCOCC3)cc2)cc1,inactive: 6.86%,
CCOC(=O)c1c(NC(=O)Cn2cnc([N+](=O)[O-])n2)sc2c1CCCC2,inconclusive: -5.77%,
COc1ccc(C(=O)NCCC2=CCCCC2)cc1,,"inconclusive: 29.1 µM [falling, single point]"
CCN(CCCNC(=O)CNC(=O)Cn1cnc2ccccc2c1=O)c1cccc(C)c1,inconclusive: -1.05%,
CC(C)C(=O)Nc1cccc(-c2csc(-c3ccccc3)n2)c1,inconclusive: -13.3%,
O=C(C1COc2ccccc2O1)N1CCc2ccccc21 (configuration not stated),inactive: 2.32%,

Structure (SMILES),"activity change, negative = inhibition",Potency
CC(C)CSC1=NSC2=NC(=O)/C(=C\c3cccs3)C(=N)N12,inconclusive: -1.95%,
CC(C)OC(=O)Nc1ccc2c(c1)N(C(=O)CCN(C)C)c1ccccc1CC2,inactive: 0.592%,
Nc1nc(SCC(=O)Nc2c(Br)cc([N+](=O)[O-])cc2Br)n[nH]1,inconclusive: 6.12%,
CN(CC(=O)Nc1ccc(F)c(F)c1F)C(=O)c1ccc(-n2cncn2)cc1,inconclusive: -0.559%,
Cc1ccc(NC(=O)COC(=O)c2nn(C)cc2Cl)cc1,inactive: -0.807%,
O=C(O)CCCn1cc(NC(=O)c2cc(F)c(F)cc2Cl)cn1,inactive: 4.1%,
Cc1ccc(S(=O)(=O)/C(=C/Cl)NC(=O)c2ccccc2)cc1,inconclusive: 14.6%,
O=c1c2ccccc2nc(SCc2nc3ccccc3s2)n1CCCO,inconclusive: -2.9%,
NS(=O)(=O)c1ccc(-c2ccc(/C=C3\SC(=O)NC3=O)o2)cc1,inconclusive: 0.979%,
COc1ccccc1CCN=C(N)NS(=O)(=O)c1ccc(C)c(C)c1,inactive: -0.0877%,
CCN(CC)c1ccc(NC(=O)CN2CCN(CC(=O)Nc3ccccc3OC)CC2)cc1,inactive: -10.9%,
O=C(/C=C\c1ccc2c(c1)OCO2)NC1(C(=O)Nc2ccc3c(c2)OCCO3)CCCCC1,,"inconclusive: 32.6 µM [falling, partial curve, poor fit]"
CC(=O)NC1=C(N(C)C2CCS(=O)(=O)C2)C(=O)c2ccccc2C1=O (configuration not stated),inconclusive: -12.5%,
O=C(Nc1nccs1)c1ccc(F)c(S(=O)(=O)N2CCOCC2)c1,inconclusive: 8.62%,
COc1ccc(N2CCN(S(=O)(=O)c3c(C(=O)N4CCOCC4)c(C)n(C)c3C)CC2)cc1,inactive: 0.618%,
CC(Oc1ccc(Cl)cc1)C(=O)Nc1nccs1 (configuration not stated),inconclusive: -0.5%,
CC1(C)Cc2nc3oc4c(=S)nc[nH]c4c3cc2CO1,inconclusive: 3.2%,
O=C(NN1C(=O)/C(=C/C=C/c2ccccc2)SC1=S)c1ccncc1,inconclusive: -6.95%,
Cc1ccccc1NC(=O)c1sc2nc(N3CCOCC3)c3c(c2c1N)CCCC3,,"inconclusive: 20 µM [falling, single point]"
Cc1cc2c(cc1S(=O)(=O)N(C)CC(=O)Nc1cccc(C#N)c1)OCC(=O)N2,inactive: 0.915%,
Cc1ccc(NC(=O)CN(C)C(=O)COC(=O)CNS(=O)(=O)c2ccc(F)c(F)c2F)cc1,inconclusive: 3.84%,

Structure (SMILES),"activity change, negative = inhibition",Potency
COc1ccc(C(=O)NC(=S)N2CCN(c3ccccc3O)CC2)cc1,inconclusive: 6.47%,
O=C(Oc1cccc(NC(=O)c2ccccc2Cl)c1)c1ccc([N+](=O)[O-])cc1,,"inconclusive: 7.08 µM [falling, full curve]"
O=C(CS(=O)CC(=O)Nc1cccnc1)Nc1ccc(F)cc1 (configuration not stated),inactive: -16.8%,
COc1cccc(C(=O)Nc2nc3c(c(=O)[nH]2)CCCC3)c1,,"inconclusive: 1.46 µM [rising, partial curve, poor fit]"
CCCn1c(=O)[nH]c(=O)c2c1nc(-c1cc([N+](=O)[O-])ccc1Cl)n2CCOC,inconclusive: -4.7%,
CN1CCC(OC(=O)c2ccc(Cl)cc2Cl)CC1,inconclusive: 11%,
NC(=O)c1ccccc1-c1noc(-c2ccccc2F)n1,inconclusive: 14.1%,
O=C(CCCn1c(=S)[nH]c2ccccc2c1=O)NCCSCc1ccccc1,,"inconclusive: 4.47 µM [falling, partial curve, poor fit]"
O=C(CCS(=O)(=O)c1ccccc1)Nc1ccc(Cl)cn1,inactive: 1.91%,
CC(=O)Nc1ccc(C=NNc2ccc([N+](=O)[O-])cc2S(=O)(=O)Nc2ccccc2C(=O)O)cc1,inactive: 1.75%,
O=C(CSc1nc2ccccc2c(=O)n1-c1ccccc1F)NC1CC1,inconclusive: -18.3%,
C[C@@H]1CC[C@H](O)/C=C/C(=O)O[C@H](C)CC[C@H](O)/C=C/C(=O)O1,inactive: -5.39%,
CCOC(=O)n1n[n+]([O-])c2ccccc21,inconclusive: 0.317%,
Cc1cc(C)nc(N2CCC(C(=O)Nc3nnc(C)s3)CC2)n1,inconclusive: 2.61%,
COc1ccc(-c2n[nH]c(=S)n2/N=C/C=C\c2ccccc2OC)cc1,inconclusive: -17.6%,
CCC(C)(C)C1CCc2[nH]nc(C(=O)NC3CCCCC3)c2C1 (configuration not stated),inactive: 0.5%,
Cc1c(C(=O)OC/C(O)=C(\C#N)c2nc3ccccc3[nH]2)oc2ccccc12,inactive: 6.12%,
CN(C(=O)CSc1ncnc2sccc12)C1CCS(=O)(=O)C1 (configuration not stated),inactive: -11.1%,
CSc1cccc(Nc2cc(C(=O)NCCCN(Cc3ccccc3)C(C)C)c3ccccc3n2)c1,,"inconclusive: 22.4 µM [rising, single point]"
CN(C)c1ccc(/C=C2/NC(=O)NC2=O)cc1,inconclusive: -1.29%,
COCc1cc(C)nc2sc3c(=O)n(Cc4ccco4)nnc3c12,,"inconclusive: 0.13 µM [rising, full curve]"

Structure (SMILES),"activity change, negative = inhibition",Potency
Cc1ccc(Oc2ncccc2COC(=O)Nc2ccccc2C)cc1,,"inconclusive: 10 µM [falling, partial curve, poor fit]"
Cc1c(C(=O)C(C)C)n(C)c2ccccc12,inconclusive: 5.47%,
Cc1ccc(C(=O)Nc2ccc3c(c2)OCCO3)o1,,"inconclusive: 29.1 µM [falling, single point]"
CCOc1cc(-c2cc(-c3ccc(NC(C)=O)cc3)nc(N)c2C#N)ccc1O,inconclusive: -15.6%,
COc1ccc(S(=O)(=O)NC(CC(=O)O)c2ccco2)cc1 (configuration not stated),inconclusive: 8.13%,
O=C1CC(NS(=O)(=O)c2ccc([N+](=O)[O-])cc2)CN1c1ccc2c(c1)OCCO2 (configuration not stated),inconclusive: -9.97%,
CCCCNC(=NCc1cccc(C(F)(F)F)c1)Nc1ccccc1,inconclusive: -2.17%,
O=C(N/N=C/c1ccc(O)cc1O)C(=O)N/N=C/c1ccc(O)cc1O,inconclusive: -14.3%,
Cc1ccn(-c2cccc(-n3ccc(C)n3)n2)n1,inconclusive: 2.94%,
COc1ccc(/C=C/C(=O)Nc2nc(C)cc(C)n2)cc1OC,inconclusive: -14.1%,
CC(C(=O)NCc1ccco1)n1cc(C(=O)c2ccco2)c2ccccc21 (configuration not stated),inconclusive: 11%,
CCNC(=S)N/N=C/c1cn(Cc2ccccc2F)c2ccccc12,inactive: -6.26%,
S=c1[nH]nc(-c2ccccc2)n1/N=C/c1ccc(-c2ccccc2Cl)o1,inconclusive: 12.8%,
CCCCOC(=O)n1c(=O)oc2cc(S(=O)(=O)N3CCCCC3)ccc21,inconclusive: 8.4%,
Cc1nc2cc(NS(=O)(=O)c3ccccc3F)ccc2s1,inactive: -2.11%,
O=C(COC(=O)CCC(=O)c1ccccc1)Nc1nnc(-c2ccccc2)o1,inconclusive: 20.7%,
Cc1ccc(OCCNC(=O)c2cc(-n3cnnc3)ccc2Cl)cc1C,inconclusive: -10.8%,
O=c1oc(-c2cccs2)nc2ccccc12,,"inconclusive: 14.6 µM [falling, partial curve]"
O=C(O)C1C(c2ccccc2)C(C(=O)OCCCO)C1c1ccccc1 (configuration not stated),inconclusive: -0.708%,

# Look-ups from the entries so far.
# In activity change, negative = inhibition, Cc1c(C(=O)C(C)C)n(C)c2ccccc12 is listed with inconclusive: 5.47%
# In activity change, negative = inhibition, CCCCNC(=NCc1cccc(C(F)(F)F)c1)Nc1ccccc1 is listed with inconclusive: -2.17%
